# No constants are given. Whether binding was seen depends on the method and setting. Binding seen in cells or lysates may run through a third protein. For some of these results: A result given as binding can be weak or reduced; the word gives no strength.
# Sequences of proteins named here, by UniProt entry; tags and fusion partners are left off. A change or cut given only in a name is not applied to a line headed by its entry. Residues count along the entry.
# UniProt Q9HBA0: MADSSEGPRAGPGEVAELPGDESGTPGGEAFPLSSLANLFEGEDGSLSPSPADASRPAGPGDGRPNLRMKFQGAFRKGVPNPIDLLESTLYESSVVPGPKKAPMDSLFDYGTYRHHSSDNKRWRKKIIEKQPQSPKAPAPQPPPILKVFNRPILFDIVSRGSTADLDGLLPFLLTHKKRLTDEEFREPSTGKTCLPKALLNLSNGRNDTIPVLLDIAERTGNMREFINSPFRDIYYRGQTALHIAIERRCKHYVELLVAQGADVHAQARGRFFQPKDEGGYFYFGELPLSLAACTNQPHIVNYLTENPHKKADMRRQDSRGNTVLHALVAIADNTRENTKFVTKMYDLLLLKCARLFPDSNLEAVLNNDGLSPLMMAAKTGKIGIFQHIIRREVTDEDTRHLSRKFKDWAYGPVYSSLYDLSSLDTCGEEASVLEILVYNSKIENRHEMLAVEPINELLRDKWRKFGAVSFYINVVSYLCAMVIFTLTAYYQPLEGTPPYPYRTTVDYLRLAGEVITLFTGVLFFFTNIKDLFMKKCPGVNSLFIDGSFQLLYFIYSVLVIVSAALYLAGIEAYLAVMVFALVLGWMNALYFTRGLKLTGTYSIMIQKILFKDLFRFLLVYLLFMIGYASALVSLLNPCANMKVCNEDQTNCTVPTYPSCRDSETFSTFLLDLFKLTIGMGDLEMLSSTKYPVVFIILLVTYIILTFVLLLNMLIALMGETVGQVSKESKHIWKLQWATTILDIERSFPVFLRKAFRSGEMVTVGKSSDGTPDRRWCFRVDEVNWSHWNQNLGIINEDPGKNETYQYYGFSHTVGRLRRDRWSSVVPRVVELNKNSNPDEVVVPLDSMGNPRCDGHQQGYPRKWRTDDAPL
# UniProt P08195, residues 102-630: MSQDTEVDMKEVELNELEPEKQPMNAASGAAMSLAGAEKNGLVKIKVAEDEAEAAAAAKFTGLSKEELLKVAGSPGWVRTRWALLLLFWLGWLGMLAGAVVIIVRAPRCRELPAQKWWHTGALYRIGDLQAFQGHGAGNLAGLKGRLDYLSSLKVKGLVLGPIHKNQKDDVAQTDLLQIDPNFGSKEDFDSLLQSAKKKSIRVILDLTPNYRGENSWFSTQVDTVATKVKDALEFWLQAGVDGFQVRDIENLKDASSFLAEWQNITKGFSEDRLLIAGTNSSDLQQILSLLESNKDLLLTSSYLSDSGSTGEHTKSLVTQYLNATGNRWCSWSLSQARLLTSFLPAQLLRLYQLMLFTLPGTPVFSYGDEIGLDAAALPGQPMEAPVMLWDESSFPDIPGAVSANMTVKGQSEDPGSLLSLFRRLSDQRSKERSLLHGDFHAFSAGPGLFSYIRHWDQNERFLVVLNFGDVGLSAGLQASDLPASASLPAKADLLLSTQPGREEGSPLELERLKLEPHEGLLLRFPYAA
# Columns and labels:
# [1] = target: TRPV4 in HEK293T lysate (precipitated by anti-TRPV4 antibody) (human (endogenous in HEK293T)) (UniProt Q9HBA0); assay: co-IP
# [2] = target: TRPV4 (Transient Receptor Potential Vanilloid 4), endogenous, HUVE cells (human (endogenous in HUVE)) (UniProt Q9HBA0); assay: proximity ligation
# [3] = target: FLAG tagged CD98hc(WT), 1-210 aa of CD98hc (UniProt P08195); assay: co-IP
# [4] = target: CD98hc in HEK293T lysate (precipitated by anti-CD98hc antibody) (human (endogenous in HEK293T)) (UniProt P08195); assay: co-IP
substance,measurement,setting,value
CD98hc(ΔHH)-HA (from UniProt P08195),binding,[1],no binding
"FLAG tagged CD98hc(WT), 1-210 aa of CD98hc (from UniProt P08195) (domain or fragment)",binding,[2],binds
TRPV4 overexpressed in HEK293T cells (with the FLAG-CD98hc constructs) (from UniProt Q9HBA0 1-871),binding,[3],binds
TRPV4(ΔPR)–myc (from UniProt Q9HBA0),binding,[4],binds

# — doi:10.1101/617092
